Results are given in words; binding and its absence hold for the method and conditions named. For some of these results: In cells and extracts the contact can be indirect. Some binding calls cover weakened binding; strength is not graded here. For some of these results: Tags and fused reporters may be left off the sequences shown.
Columns and labels:
[1] = target: T1, GST-Nbr1 aa346-498 (FW domain, pGEX2T) (UniProt P97432); assay: pull-down; GST-Nbr1 aa346-498 or GST alone on beads, incubated with lysate of COS7 cells transfected with MAP1B-myc, 2 hours at 4°C; washes 50 mM Tris pH 7.5, 200 mM NaCl, 0.5% NP-40; blot anti-myc; only the target purified
T1 sequence: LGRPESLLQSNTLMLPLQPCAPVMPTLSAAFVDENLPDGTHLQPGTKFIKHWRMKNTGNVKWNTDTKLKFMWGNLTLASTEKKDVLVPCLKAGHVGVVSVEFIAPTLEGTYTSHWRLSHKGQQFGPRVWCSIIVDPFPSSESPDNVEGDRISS

Protein sequences, listed by entry. Tags and fused reporters are not part of them. Residues count along the entry.
MAP1B-LC1-myc (MAP1B aa2216-2464 in pcDNA3.1) (P14873, residues 2216-2464): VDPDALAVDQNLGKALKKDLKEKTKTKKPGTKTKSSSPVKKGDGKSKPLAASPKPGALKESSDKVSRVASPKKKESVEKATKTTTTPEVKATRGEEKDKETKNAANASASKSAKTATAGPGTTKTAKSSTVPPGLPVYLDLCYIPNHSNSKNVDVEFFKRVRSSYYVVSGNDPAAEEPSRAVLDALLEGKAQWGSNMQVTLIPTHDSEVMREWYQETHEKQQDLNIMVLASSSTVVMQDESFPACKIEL
His6-MAP1B aa2227-2464 (PET6H) (P14873, residues 2227-2464): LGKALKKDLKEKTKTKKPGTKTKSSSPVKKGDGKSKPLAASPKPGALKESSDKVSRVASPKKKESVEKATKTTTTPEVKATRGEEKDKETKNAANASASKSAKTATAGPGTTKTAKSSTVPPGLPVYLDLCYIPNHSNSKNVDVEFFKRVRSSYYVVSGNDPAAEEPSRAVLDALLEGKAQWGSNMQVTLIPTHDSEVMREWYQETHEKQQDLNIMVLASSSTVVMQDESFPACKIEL
MAP1B light chain (MAP1B-LC1) library clone aa2238-2465 in pGADT7 (P14873, residues 2238-2464): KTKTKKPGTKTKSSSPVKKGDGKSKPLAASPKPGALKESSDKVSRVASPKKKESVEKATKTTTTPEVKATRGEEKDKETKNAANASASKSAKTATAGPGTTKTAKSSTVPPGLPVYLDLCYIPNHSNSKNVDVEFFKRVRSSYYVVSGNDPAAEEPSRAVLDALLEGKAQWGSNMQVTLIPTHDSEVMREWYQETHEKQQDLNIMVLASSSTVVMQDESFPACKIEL

[2] = target: T1, GST-Nbr1 aa346-498 (FW domain, pGEX2T); assay: pull-down; purified GST or GST-Nbr1 aa346-498 on glutathione agarose beads, incubated with purified His6-MAP1B aa2227-2464 in 50 mM Tris pH 7.5, 150 mM NaCl, 0.5% NP-40, 2 hours at 4°C; blot anti-His; both purified
[3] = target: T2, Nbr1 aa346-498 (FW domain) yeast two-hybrid bait in pGBKT7 (UniProt P97432); assay: two-hybrid; directed retransformation and mating assay; growth on SD medium lacking leucine, tryptophan, histidine and adenine, 30°C
T2 sequence: T1 sequence

[4] = target: T2, Nbr1 aa346-498 (FW domain) yeast two-hybrid bait in pGBKT7; assay: two-hybrid; library screen: Nbr1 aa346-498 bait in Y187 mated with a mouse neonatal calvarial cDNA library in AH109; HIS3 reporter gene activity, replated three times, inserts sequenced

For “MAP1B-LC1-myc (MAP1B aa2216-2464 in pcDNA3.1) (from UniProt P14873 2216-2464) (domain or fragment)”, the binding [1] was “binds”.
With “His6-MAP1B aa2227-2464 (PET6H) (from UniProt P14873 2227-2464) (domain or fragment)” the binding [2] was “binds”.
For “MAP1B light chain (MAP1B-LC1) library clone aa2238-2465 in pGADT7 (from UniProt P14873 2238-2464) (domain or fragment)”, the binding [3] was “binds” and the binding [4] was “binds”.
